Some results were stated once for a whole list of compounds, not compound by compound.
System: tumor cells derived from non-human mammals
Assay: Antitumor activity using tumor cells derived from non-human mammals
Assay type: cell-based
Conditions: no data shown

“VAQVILALIAFICIETIMACSKKRTLRKNDRKKR [Sample 1]” was tested, and the “Antitumor activity (in words)” value was “excellent antitumor activity”.

With “IAAVIFGFLATAAYAVNTFLAKKRTLRKNDRKKR [Sample 4]” the “Antitumor activity (in words)” value was “excellent antitumor activity”.

In the case of “YFFEFVSCSAFVVTGVLLIMFKKRTLRKNDRKKR [Sample 2]”, the “Antitumor activity (in words)” value is reported as “excellent antitumor activity”.

For “LVNTGLSAFLFFIASIVLAALKKRTLRKNDRKKR [Sample 3]”, the “Antitumor activity (in words)” value was “excellent antitumor activity”.
